Experimental data: PubChem BioAssay AID1671195 (Yale University, 2021)

Aim: 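Genes whose knockdown alters LDL uptake in liver cancer cells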 (primary screen)
Cells: human Huh7 hepatoma cells
Reagent: siRNA pool against human genes, 18 nM
Time to read-out: about 2 to 2.5 days of knockdown, then 8 h LDL uptake
Challenge: DiI-labelled LDL at 30 µg/ml for 8 h, in lipoprotein-deficient serum medium
Read-out: 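Per-cell DiI-LDL intensity by automated imaging; well means scaled to the plate median and given as a robust z-score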
Direction: robust z-score: higher = more LDL uptake after knockdown
Rule for the call: 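Active when two or more replicates show a robust z-score above 2 or below -2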
This is one part, drawn at random, of about 22,000 reagents tested. In the full data, about 1,510 (6.9%) were called active. 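Active includes knockdowns raising or lowering LDL uptake; positive z-scores mean more uptake, negative mean less.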 Entries without a mark were called inactive. The numbers tell different reagents against one gene apart.

After knock-down of LRRC36 (GeneID 55282), the screen gave robust z-score, replicate 1 = -0.79; robust z-score, replicate 2 = 0.398; robust z-score, replicate 3 = -0.748.
SNX2 (GeneID 6643) gave robust z-score, replicate 1 = -0.371; robust z-score, replicate 2 = -0.714; robust z-score, replicate 3 = -0.614.
Against IER3IP1 (GeneID 51124) the deposit lists robust z-score, replicate 1 = -1.25; robust z-score, replicate 2 = -1.14; robust z-score, replicate 3 = -0.862.
After knock-down of RFT1 (GeneID 91869), the record shows robust z-score, replicate 1 = 1.56; robust z-score, replicate 2 = 0.923; robust z-score, replicate 3 = 0.838.
CRSP8P (GeneID 441089) showed robust z-score, replicate 1 = -0.285; robust z-score, replicate 2 = -0.758; robust z-score, replicate 3 = -0.193.
For OPTC (GeneID 26254), the values are robust z-score, replicate 1 = 0.7; robust z-score, replicate 2 = 1.8; robust z-score, replicate 3 = -0.861.
With knock-down of ANO2 (GeneID 57101), the screen gave robust z-score, replicate 1 = -0.0796; robust z-score, replicate 2 = -0.894; robust z-score, replicate 3 = -0.65.
ARPP21 (GeneID 10777) #1 showed robust z-score, replicate 1 = 0.12; robust z-score, replicate 2 = 0.249; robust z-score, replicate 3 = 0.0438.
ARPP21 (GeneID 10777) #2 showed robust z-score, replicate 1 = 0.246; robust z-score, replicate 2 = -0.126; robust z-score, replicate 3 = -0.827.

2 entries from above, showing only “robust z-score, replicate 2”.
SNX2 (GeneID 6643)	-0.714
IER3IP1 (GeneID 51124)	-1.14

Continued:
ALOX5 (GeneID 240) scored robust z-score, replicate 1 = -0.187; robust z-score, replicate 2 = -0.0837; robust z-score, replicate 3 = -0.0431.
For ANAPC4 (GeneID 29945) the deposit lists robust z-score, replicate 1 = 2.74 (active); robust z-score, replicate 2 = 1.46; robust z-score, replicate 3 = 2.63.
For MAGEB6 (GeneID 158809) the deposit lists robust z-score, replicate 1 = 1.07; robust z-score, replicate 2 = 1.37; robust z-score, replicate 3 = 1.73.
For GDF11 (GeneID 10220), the values are robust z-score, replicate 1 = 0.359; robust z-score, replicate 2 = -0.937; robust z-score, replicate 3 = -0.561.
Depletion of DTX4 (GeneID 23220) came out at: robust z-score, replicate 1 = -0.048; robust z-score, replicate 2 = 0.344; robust z-score, replicate 3 = 0.0364.
Knock-down of KCNB1 (GeneID 3745) gave: robust z-score, replicate 1 = -0.019; robust z-score, replicate 2 = 0.149; robust z-score, replicate 3 = -0.163.
For LOC441085 (retired record) (GeneID 441085), the values are robust z-score, replicate 1 = -0.25; robust z-score, replicate 2 = -0.351; robust z-score, replicate 3 = -0.277.
Depletion of UBE2N (GeneID 7334) came out at: robust z-score, replicate 1 = 1.14; robust z-score, replicate 2 = 1.1; robust z-score, replicate 3 = -0.278.
After knock-down of MAGEB6B (GeneID 392433), the record shows robust z-score, replicate 1 = 0.0726; robust z-score, replicate 2 = 1.08; robust z-score, replicate 3 = 1.55.
C2orf15 (GeneID 150590) scored robust z-score, replicate 1 = 1.4; robust z-score, replicate 2 = 0.259; robust z-score, replicate 3 = 0.792.
SOS1 (GeneID 6654) scored robust z-score, replicate 1 = -0.856; robust z-score, replicate 2 = -1.63; robust z-score, replicate 3 = -0.904.
FANCL (GeneID 55120) showed robust z-score, replicate 1 = -0.788; robust z-score, replicate 2 = 1.39; robust z-score, replicate 3 = 0.292.
Depletion of CAPN2 (GeneID 824) came out at: robust z-score, replicate 1 = -1.63; robust z-score, replicate 2 = -0.88; robust z-score, replicate 3 = -1.16.
After knock-down of LINC01257 (GeneID 116437) the results were robust z-score, replicate 1 = 2.93 (active); robust z-score, replicate 2 = 4.76; robust z-score, replicate 3 = 5.05.
Silencing of THAP8 (GeneID 199745) gave: robust z-score, replicate 1 = -0.445; robust z-score, replicate 2 = 0.0669; robust z-score, replicate 3 = -0.333.
